In patent US8445291B2 (National University Corporation Tokyo Medical and Dental …, priority 2007, dated 2013):

Experiments:
[1] = general procedure: Fmoc solid-phase peptide synthesis; Rink Amide resin (0.55 mmol/g); 2-chlorotrityl chloride resin for Chain B; diisopropylcarbodiimide / N-hydroxybenzotriazole monohydrate; conditions: whole synthesis, scale 0.05 mmol
probe peptide = experiment: Fluorescence titration of probe peptide with tag peptide (HEPES buffer), incl. Job's plot; format: binding; conditions: 0.5 μM probe peptide, no tag peptide
Experimental: Fluorescence titration was performed for the tag polypeptides and the probe polypeptides of Examples 1 to 3.
In the fluorescence titration, the rate of change of the fluorescence intensity at 505 nm was plotted against the concentration of the tag peptide and the dissociation constant was calculated from a theoretical formula assuming 1 to 1 binding of the tag peptide to the probe peptide.
In Example 1, the fluorescence intensity at 505 nm in the presence of 1 equivalent of tag peptide was 18 times as high as that measured in the absence of the tag peptide.
Also in the fluorescence titration, with the total concentration of the tag peptide and the probe peptide being fixed at 1.0 μM, the ratio of the respective concentrations of the tag peptide and the probe peptide was varied and the fluorescence intensity at 505 nm was measured. The measured fluorescence intensity was plotted against the ratio of the tag peptide concentration to the total concentration of the tag peptide and the probe peptide and was analyzed by the theoretical formula assuming 1 to 1 binding of the tag peptide to the probe peptide.

| Substance | isolated mass [1] [mg] | isolated yield [1] [%] | fluorescence wavelength detected for the probe peptide alone (probe peptide) [nm] |
| --- | --- | --- | --- |
| ClAc-{Gly}{Ala-Leu-Lys-Lys-Lys-Leu-Glu}{Ala-Leu-Lys-Lys-Lys-Dap(NBD)-Glu}{Ala-Leu-Lys-Lys-Lys-Leu-Ala} | 12.8 | 27.8 | – |
| ALKKELEAGKKELEALKKELAGGCGGALEKELEALEKEGEALEKELA [Example 3] | – | – | ~540 |
| ALKKELEAAKKELEALKKELAGGCGGALEKELEALEKEAEALEKELA [Example 1] | – | – | ~540 |
| ALKKELEALKKELEALKKELAGGCGGALEKELEALEKELEALEKELA [Example 2] | – | – | ~540 |
